{"source": "PubChem BioAssay AID504444", "about": "(National Center for Advancing Translational Sciences (NCATS), 2011)", "note": "Out of some 360,000 compounds screened, about 7,500 (2.1%) were called active. Inconclusive results, whose numbers are uncertain, are shown with a selection of clear calls. Calls follow the shape of the dose curve; as a rule, active = well fitted inhibition curve with a large enough effect; inconclusive = small, poorly fitted or top-dose-only effect, or effect the other way; inactive = flat fitted curve, though single readings scatter. Potencies beside an inconclusive call are fits to weak or partial responses and may not hold up.", "data": [{"experiment": "Nrf2 qHTS screen for inhibitors; also: nearly all actives have a fitted effect of over 60% in size; also: potency is read from the fitted curve at half-maximal effect; as to activity change, negative = inhibition: % is scaled to controls: 0 for no effect and ±100 for the full control effect", "conditions": "A549 ARE-Fluc reporter, luciferase luminescence, 18-24 h; activity change, negative = inhibition: at 46 µM (top of the series)", "in_short": "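Cells were seeded and rested 2 h, then exposed to compounds for 18-24 h. CellTiter-Fluor was read first as a viability measure. BugLite was added 15 min before the final luminescent read of ARE-luciferase activity in A549 cells.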", "values": [{"molecule": "CSCCC1NC(=O)N(C(C)C(=O)Nc2cc(Cl)cc(Cl)c2)C1=O", "note": "(stereo not given)", "activity change, negative = inhibition": "inactive: 26.4%"}, {"molecule": "O=c1c2ccccc2nnn1CSc1ccc2c(c1)OCCO2", "Potency": "inconclusive: 0.731 µM [activator, partial curve, poor fit]"}, {"molecule": "CCCCC(=O)NC(c1ccccc1Cl)c1ccc2cccnc2c1O", "note": "(stereo not given)", "Potency": "inconclusive: 29.1 µM [falling, single point]"}, {"molecule": "CC(=O)c1ccc(NC(=O)COc2ccccc2-c2nc(-c3ccccc3)no2)cc1", "Potency": "inconclusive: 11.6 µM [falling, partial curve]"}, {"molecule": "Cc1cccc(N(C)S(=O)(=O)c2c[nH]c3ccc([N+](=O)[O-])cc23)c1", "activity change, negative = inhibition": "inactive: -1.23%"}, {"molecule": "COc1cc(/C=C2\\SC(=S)N(CCC(=O)Nc3ccccc3O)C2=O)cc(OC)c1OC", "Potency": "inconclusive: 20.6 µM [activator, partial curve, poor fit]"}, {"molecule": "O=C(c1ccc2ccccc2c1)N1CCN(c2ccc(O)cc2)CC1", "Potency": "inconclusive: 23.1 µM [falling, partial curve, poor fit]"}, {"molecule": "COc1cc(NC(=O)CC(C)n2ccnc2)cc(OC)c1", "note": "(stereo not given)", "Potency": "inconclusive: 3.66 µM [activator, single point]"}, {"molecule": "O=C(C[C@@H]1C/C=C/CC[C@@H](Cc2ccc(F)cc2)C(=O)OCCNC1=O)N[C@H](CO)Cc1ccccc1", "activity change, negative = inhibition": "inactive: -16.8%"}, {"molecule": "CCC(C)Sc1ccc(-c2nc3ccccn3c2NCc2ccccc2)cc1OC", "note": "(stereo not given)", "Potency": "inconclusive: 29.1 µM [falling, single point]"}, {"molecule": "Cc1ccc(C(=O)NCC(c2ccco2)N2CCc3ccccc3C2)cc1", "note": "(stereo not given)", "activity change, negative = inhibition": "inactive: -8.52%"}, {"molecule": "COc1ccc(OCCSc2nc3ccccc3n2CC(=O)N2CCOCC2)cc1", "Potency": "inconclusive: 20.6 µM [falling, single point]"}, {"molecule": "COc1ccc(NC(=O)CCCc2nnc3n(CCC(C)C)c(=O)c4sccc4n23)cc1Cl", "activity change, negative = inhibition": "inactive: -30.2%"}, {"molecule": "C=CCN1CC(=O)N2C(c3ccccc3)c3[nH]c4ccccc4c3C[C@H]2C1=O", "note": "(stereo not given in full)", "Potency": "inconclusive: 36.6 µM [falling, partial curve, poor fit]"}, {"molecule": "COc1ccc(S(=O)(=O)N2CCCCCC2)cc1C(=O)N(C)CC(=O)Nc1ccccc1C(F)(F)F", "Potency": "inconclusive: 18.4 µM [falling, partial curve, poor fit]"}, {"molecule": "Cc1ccc(-c2cn(-c3ccc(OC(F)F)cc3)c3[n+]2CCCCC3)cc1", "Potency": "inconclusive: 13 µM [falling, partial curve, poor fit]"}, {"molecule": "COc1ccc(NC(=O)N(Cc2cc3ccc(OC)cc3[nH]c2=O)CC2CCCO2)cc1", "note": "(stereo not given)", "Potency": "inconclusive: 20.6 µM [activator, single point]"}, {"molecule": "COc1ccccc1C1NC(=O)NC(C)=C1C(=O)OCc1ccccc1", "note": "(stereo not given)", "activity change, negative = inhibition": "inactive: -7.23%"}, {"molecule": "Cc1cccc(/C(N)=N/OC(=O)c2ccoc2C)c1", "Potency": "inconclusive: 25.9 µM [activator, partial curve]"}, {"molecule": "Cc1ccc(S(=O)(=O)N2CCOCC2)cc1C(=O)Nc1ccc(-c2cn3ccsc3n2)cc1", "Potency": "inconclusive: 25.1 µM [falling, single point]"}, {"molecule": "O=C(CCN1CCCC1Cc1ccccc1)c1ccc2c(c1)OCCO2", "note": "(stereo not given)", "activity change, negative = inhibition": "inactive: 1.96%"}, {"molecule": "Cc1cc(O)c(NC(=O)c2ccco2)cc1C", "Potency": "inconclusive: 18.4 µM [activator, partial curve, poor fit]"}, {"molecule": "Oc1ccc(/C=C/c2ccccc2)c2cccnc12", "Potency": "inconclusive: 29.1 µM [falling, single point]"}, {"molecule": "COc1ccc(C#Cc2c(-c3ccccc3)n(-c3ccccc3)c3ccc(CO)cc23)cc1", "activity change, negative = inhibition": "inactive: 1.36%"}, {"molecule": "CCN1C(=O)[C@H]2[C@@H](c3ccc(-c4ccc(OC)cc4)c(OC)c3)N3CCCC[C@@]3(C(=O)OC)[C@H]2C1=O", "Potency": "inconclusive: 29.1 µM [falling, single point]"}, {"molecule": "O=C(Nc1ccccc1)Nc1n[nH]c2nnc(-c3ccccc3)c(-c3ccccc3)c12", "Potency": "inconclusive: 18.4 µM [activator, single point]"}, {"molecule": "Cc1ccc(Sc2c(C#N)c(-c3ccccc3)nn2C)cc1", "Potency": "active: 5.8 µM"}, {"molecule": "COc1ccc(/C(N)=N/OC(=O)C2CCCCC2)cc1OC", "Potency": "inconclusive: 8.2 µM [activator, partial curve, poor fit]"}, {"molecule": "O=S(=O)(Nc1cc(C(F)(F)F)ccc1N1CCOCC1)c1ccc2ccccc2c1", "Potency": "inconclusive: 29.1 µM [falling, single point]"}, {"molecule": "CC(C)(C)OC(=O)NCCCCCNC(=O)c1[nH]cnc1C(=O)Nc1ccccc1", "Potency": "inconclusive: 29.1 µM [falling, single point]"}, {"molecule": "Cc1cc(C)cc(N(CC(=O)Nc2ccccc2)C2=NC3CS(=O)(=O)CC3S2)c1", "note": "(stereo not given)", "Potency": "inconclusive: 18.4 µM [falling, partial curve, poor fit]"}, {"molecule": "Cc1ccc(-c2noc(CSc3nnc(C)n3-c3ccc(C)cc3)n2)cc1", "Potency": "inconclusive: 18.4 µM [falling, partial curve, poor fit]"}, {"molecule": "Cc1ccc(S(=O)(=O)NCc2ccc(C(=O)N3CCN(Cc4ccccc4)CC3)cc2)cc1", "Potency": "inconclusive: 23.1 µM [falling, single point]"}, {"molecule": "CN(C)S(=O)(=O)c1cccc(COC(=O)C2=COCCO2)c1", "Potency": "inconclusive: 18.4 µM [activator, partial curve]"}, {"molecule": "CC(=O)c1c(C)n(CC(=O)NCc2ccco2)c2ccccc12", "Potency": "inconclusive: 25.9 µM [falling, partial curve, poor fit]"}, {"molecule": "Cc1cc(C)c(S(=O)(=O)N2CCCC(C(=O)N3CCCC3)C2)c(C)c1", "note": "(stereo not given)", "Potency": "inconclusive: 29.1 µM [falling, single point]"}, {"molecule": "CCN(C(=O)CSc1nc(-c2cccs2)nc2ccccc12)C1CCS(=O)(=O)C1", "note": "(stereo not given)", "Potency": "inconclusive: 29.1 µM [falling, partial curve, poor fit]"}, {"molecule": "COc1ccc(Cn2ccc3nc(C)c(C(=O)N4CCN(c5cc(C)ccc5C)CC4)cc3c2=O)cc1", "activity change, negative = inhibition": "inactive: -12.6%"}, {"molecule": "CCOc1ccc(CNC(=O)c2cnc3sc(N4CCCCCC4)nn3c2=O)cc1OC", "Potency": "inconclusive: 10.3 µM [activator, partial curve, poor fit]"}, {"molecule": "Cc1cccc(C(=O)Nc2ccc(C(=O)N/N=C/c3ccco3)cc2)c1", "Potency": "inconclusive: 2.31 µM [falling, partial curve, poor fit]"}]}]}
